Structures can show the parent of a compound that is named as a salt. Some of the results follow. Repeats in this data set agree poorly, so a single value says little.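 In a drug-repurposing library screen, luminescence reads luciferase driven by eight TEAD-binding elements, stably integrated into human kidney-derived cells. Compounds scoring over five robust Z scores above the plate mean are called hits.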
Test system: HEK293A TEAD-LUC reporter
Assay: TEAD-luciferase reporter activity (YAP activation), robust Z score vs plate; higher = stronger YAP/TEAD activation
Conditions: 24 h

SMILES	TEAD-luciferase reporter activity (compound concentration: 200 nM)	TEAD-luciferase reporter activity (compound concentration: 2 uM)	TEAD-luciferase reporter activity (compound concentration: 10 uM)
Cc1cccc(CCN2CCC(C(=O)c3ccc(NS(C)(=O)=O)cc3)CC2)n1	inactive: 0.55	inactive: -0.34	inactive: 0.717
Cc1nc(N)nc(N)c1C1CCCCC1	inactive: -0.419	inactive: -1.03	active: 7
Cc1ccc(C(=O)Nc2ccc(C3=NCCN3)cc2)cc1	inactive: 0.406	inactive: 4.22	inactive: 1.22
O=C(c1ccc(F)cc1)N1CCC(n2c(=O)[nH]c3ccccc32)CC1	inactive: 1.05	–	inactive: 0.513
COc1ccc(CNc2nc([C@H]3CC[C@H](C(=O)O)CC3)nc3sc4ccccc4c23)cc1Cl	inactive: -1.64	inactive: -1.97	active: 9.49
C=C1c2c(Cl)ccc(O)c2C(=O)C2=C(O)[C@]3(O)C(=O)C(C(N)=O)=C(O)[C@@H](N(C)C)[C@@H]3[C@@H](O)C12 (some centres not stated) [Meclocycline sulfosalicylate]	inactive: -1.36	inactive: 0.343	inactive: 0.681
CC(=O)N[C@H](Cc1ccc2ccccc2c1)C(=O)N[C@H](Cc1ccc(Cl)cc1)C(=O)N[C@H](Cc1cccnc1)C(=O)N[C@@H](CO)C(=O)N[C@@H](Cc1ccc(NC(=O)[C@@H]2CC(=O)NC(=O)N2)cc1)C(=O)N[C@H](Cc1ccc(NC(N)=O)cc1)C(=O)N[C@@H](CC(C)C)C(=O)N[C@@H](CCCCNC(C)C)C(=O)N1CCC[C@H]1C(=O)N[C@H](C)C(N)=O [Degarelix]	inactive: -1.39	inactive: 1.44	inactive: 2.64
NCC(=O)NC1Cc2ccccc2C1	inactive: -0.52	inactive: -0.847	inactive: -1.26
Cc1ccc(-c2c(-c3ccncc3)c(-c3ccc(F)cc3)nc3[nH]ncc23)cc1	inactive: -0.72	inactive: -1.42	active: 6.25
CCC(=O)N1C2CCCC1CC(=O)C2	inactive: 0.655	–	inactive: 2.04
COc1ccc(C2Sc3cc(Cl)ccc3N(CCN(C)C)C(=O)C2OC(C)=O)cc1 (configuration not stated)	inactive: 0.0852	inactive: 0.0596	inactive: -0.614
Cc1cc(S(C)(=O)=O)c(NC(=O)N(Cc2ccc(Oc3ccc(F)cc3)cc2)C2CCCCCC2)c(S(C)(=O)=O)n1	inactive: -1.45	inactive: 2.52	inactive: 2.58
Cc1[nH]nc(C(F)(F)F)c1Cc1sc2c(c1C(=O)N1C[C@](C)(O)CO1)c(=O)n(C)c(=O)n2C(C)C	inactive: -1.65	inactive: -2.13	inactive: 1.04
CC(=O)Nc1ccc(OCCOC(=O)c2ccccc2OC(C)=O)cc1	inactive: -1.16	inactive: 0.951	inactive: 3.37
CC(=O)c1ccc2c(c1)[C@@H](NC(=O)c1cc(F)cc(F)c1)[C@H](O)C(C)(C)O2 [Tidembersat]	inactive: -0.982	inactive: -0.847	inactive: -0.938
Cc1cc2ncc(C(=O)NC(C)CCc3ccccc3)cn2n1 (configuration not stated)	inactive: 3.66	–	inactive: 2.25
CCCCC(F)(F)[C@@]1(O)CC[C@@H]2[C@H](CCCCCCC(=O)O)C(=O)C[C@H]2O1 [Lubiprostone]	inactive: -0.136	inactive: 1.15	inactive: 4.06
Clc1ccc(OCCO/C(=C/n2ccnc2)c2ccc(Cl)cc2Cl)cc1	inactive: -1.14	inactive: -1.68	inactive: 4.3
CN(C)CCCOc1ccc2[nH]nc(S(=O)(=O)c3cccc4ccccc34)c2c1	inactive: 0.0489	inactive: -1.53	inactive: -0.651
CC(C)NCCN(C(C)C)S(=O)(=O)c1ccc(NS(C)(=O)=O)cc1	inactive: -0.566	inactive: 1.23	–
NC[C@H]1O[C@H](O[C@H]2[C@H](O)[C@@H](O[C@H]3O[C@H](CO)[C@@H](O)[C@H](N)[C@H]3O)[C@H](N)C[C@@H]2N)[C@H](N)C[C@@H]1O [Tobramycin]	inactive: 2.85	inactive: -0.52	inactive: 0.995
COc1ccc(C(C)(C)NC(=O)[C@H]2CC[C@H]3[C@@H]4CC[C@H]5NC(=O)C=C[C@]5(C)[C@H]4CC[C@]23C)cc1 [Lapisteride]	inactive: -0.337	inactive: -0.605	inactive: 0.533
O=C1NCc2ccccc2CC12CCCCN2Cc1ccc(F)cc1 (configuration not stated)	inactive: -2.29	–	inactive: 1.49
N#Cc1ccc2ccc(=O)n(CCN3CC[C@H](NCc4cc5c(cn4)OCCO5)[C@H](F)C3)c2c1	inactive: -0.916	inactive: 0.877	inactive: -0.368
O=C1C(O)=C([C@H]2CC[C@H](c3ccc(Cl)cc3)CC2)C(=O)c2ccccc21 [atovaquone]	inactive: -0.652	inactive: 1.26	inactive: -1.05
CCOC(=O)CCC(C)(c1ccc(OCc2ccc3ccccc3n2)cc1)c1ccc(OCc2ccc3ccccc3n2)cc1	inactive: -0.806	inactive: -0.139	inactive: 0.349

Another view of part of the listing above:
SMILES | TEAD-luciferase reporter activity (compound concentration: 200 nM) | TEAD-luciferase reporter activity (compound concentration: 2 uM) | TEAD-luciferase reporter activity (compound concentration: 10 uM)
CCC(=O)N1C2CCCC1CC(=O)C2 | inactive: 0.655 | – | inactive: 2.04
COc1ccc(C2Sc3cc(Cl)ccc3N(CCN(C)C)C(=O)C2OC(C)=O)cc1 (configuration not stated) | inactive: 0.0852 | inactive: 0.0596 | inactive: -0.614
Cc1cc(S(C)(=O)=O)c(NC(=O)N(Cc2ccc(Oc3ccc(F)cc3)cc2)C2CCCCCC2)c(S(C)(=O)=O)n1 | inactive: -1.45 | inactive: 2.52 | inactive: 2.58
Cc1[nH]nc(C(F)(F)F)c1Cc1sc2c(c1C(=O)N1C[C@](C)(O)CO1)c(=O)n(C)c(=O)n2C(C)C | inactive: -1.65 | inactive: -2.13 | inactive: 1.04
CC(=O)Nc1ccc(OCCOC(=O)c2ccccc2OC(C)=O)cc1 | inactive: -1.16 | inactive: 0.951 | inactive: 3.37
CC(=O)c1ccc2c(c1)[C@@H](NC(=O)c1cc(F)cc(F)c1)[C@H](O)C(C)(C)O2 [Tidembersat] | inactive: -0.982 | inactive: -0.847 | inactive: -0.938
Cc1cc2ncc(C(=O)NC(C)CCc3ccccc3)cn2n1 (configuration not stated) | inactive: 3.66 | – | inactive: 2.25
CCCCC(F)(F)[C@@]1(O)CC[C@@H]2[C@H](CCCCCCC(=O)O)C(=O)C[C@H]2O1 [Lubiprostone] | inactive: -0.136 | inactive: 1.15 | inactive: 4.06
Clc1ccc(OCCO/C(=C/n2ccnc2)c2ccc(Cl)cc2Cl)cc1 | inactive: -1.14 | inactive: -1.68 | inactive: 4.3
CN(C)CCCOc1ccc2[nH]nc(S(=O)(=O)c3cccc4ccccc34)c2c1 | inactive: 0.0489 | inactive: -1.53 | inactive: -0.651
CC(C)NCCN(C(C)C)S(=O)(=O)c1ccc(NS(C)(=O)=O)cc1 | inactive: -0.566 | inactive: 1.23 | –
NC[C@H]1O[C@H](O[C@H]2[C@H](O)[C@@H](O[C@H]3O[C@H](CO)[C@@H](O)[C@H](N)[C@H]3O)[C@H](N)C[C@@H]2N)[C@H](N)C[C@@H]1O [Tobramycin] | inactive: 2.85 | inactive: -0.52 | inactive: 0.995
COc1ccc(C(C)(C)NC(=O)[C@H]2CC[C@H]3[C@@H]4CC[C@H]5NC(=O)C=C[C@]5(C)[C@H]4CC[C@]23C)cc1 [Lapisteride] | inactive: -0.337 | inactive: -0.605 | inactive: 0.533
O=C1NCc2ccccc2CC12CCCCN2Cc1ccc(F)cc1 (configuration not stated) | inactive: -2.29 | – | inactive: 1.49

The list goes on.

SMILES	TEAD-luciferase reporter activity (compound concentration: 200 nM)	TEAD-luciferase reporter activity (compound concentration: 2 uM)	TEAD-luciferase reporter activity (compound concentration: 10 uM)
Oc1c(I)cc(Cl)c2cccnc12 [iodochlorhydroxyquin]	active: 6.31	inactive: -1.48	inactive: 2.36
O[C@@H]1C[C@H](Oc2nc(N3CCNCC3)nc3ccccc23)C[C@@H]1O	inactive: -0.00948	inactive: -0.978	inactive: 0.134
COc1cc(CN2CCN(c3ccc(F)cc3)CC2)cc(OC)c1OC	inactive: -1.21	inactive: -0.0291	active: 5.1
COc1ccc2c(c1)CCN=C2Cc1ccc(OC)c(OC)c1	inactive: 2.73	inactive: -1.05	inactive: 0.359
CN(CCNCc1c(O)c(Br)cc2c1CCC2(C)C)CCNC(=O)c1nc(Cl)c(N)nc1N	inactive: 1.61	inactive: -0.922	inactive: 3.34
O=C1c2ccccc2-c2c1c1ccccc1c(=O)n2Cc1ccc2c(c1)OCO2	inactive: -0.899	inactive: -0.939	inactive: 4.16
Nc1nc(N)c2nc(CNc3ccc(C(=O)N[C@H](CCCNC(=O)c4ccccc4C(=O)O)C(=O)O)cc3)cnc2n1	inactive: -1.67	active: 5.44	inactive: 0.454
CN(C)CCCC1(c2ccc(F)cc2)OCc2cc(C#N)ccc21 (configuration not stated) [citalopram hydrobromide]	–	inactive: -2	–
CN(C)CCCC1(c2ccc(F)cc2)OCc2cc(C#N)ccc21 (configuration not stated) [Citalopram]	inactive: -0.921	–	inactive: 4.09
CC1(C)[C@H]2CC[C@]1(C)[C@@H](O)[C@H]2O [2,3-cis/exo-Camphanediol]	inactive: 2.41	inactive: -2.38	inactive: -0.281
COc1ccc2cc1Oc1ccc(cc1)C[C@H]1c3cc(c(OC)cc3CCN1C)Oc1c(OC)c(OC)c(Br)c3c1[C@H](C2)N(C)CC3 [5-Bromotetrandrine]	inactive: 0.0282	inactive: 0.17	inactive: 2.2
C1CCN2C[C@@H]3C[C@@H](CN4CCCC[C@@H]34)[C@H]2C1 [Sparteine sulfate]	–	inactive: -1.14	–
C1CCN2C[C@@H]3C[C@@H](CN4CCCC[C@@H]34)[C@H]2C1	inactive: -1.4	–	inactive: -0.101
CC(=O)OCC1=C(C(=O)O)N2C(=O)[C@@H](NC(=O)c3c(-c4ccccc4Cl)noc3C)[C@H]2SC1	inactive: -1.57	inactive: -0.181	inactive: -2.37
CC(N)C(O)c1cccc(O)c1 (configuration not stated) [Metaraminol]	inactive: -0.245	inactive: -0.95	inactive: -1.08
CC(C)N1CCN(c2ccc(N3CCN(c4ccc(OC[C@H]5OC[C@@](Cn6cncn6)(c6ccc(F)cc6F)O5)cc4)CC3)cc2)C1=O	inactive: -0.19	inactive: -0.598	active: 5.26
O=C(C=CC=Cc1ccc2c(c1)OCO2)N1CCCCC1 [Piperine]	–	inactive: 4.03	–
S=C(NCCc1ccccn1)Nc1ccc(Br)cn1	inactive: -0.567	inactive: -1.75	inactive: -0.0386
CC(C)=CCC/C(C)=C/CC/C(C)=C/CC/C(C)=C/C=C/C=C(\C)CC/C=C(\C)CC/C=C(\C)CCC=C(C)C [trans-Phytoene]	inactive: 2.56	inactive: -0.37	inactive: 0.275
CCC(C)[C@@H]1NC(=O)[C@H](Cc2ccc(O)cc2)N(C)C(=O)CCCSC[C@@H](C(=O)N2CCC[C@H]2C(=O)N[C@@H](CC(C)C)C(=O)NCC(N)=O)NC(=O)[C@H](CC(N)=O)NC(=O)[C@H](CCC(N)=O)NC1=O (some centres not stated) [carbetocin]	inactive: -2.5	inactive: -0.591	inactive: 0.818
O=C(O)C1(c2ccc(-c3ccc(Cl)c(Cl)c3)c(F)c2)CC1	inactive: 2.03	inactive: -1.72	inactive: 3.71
CC(C)CCC[C@@H](C)[C@H]1CC[C@H]2[C@@H]3CCC4=C/C(=N/O)CC[C@]4(C)[C@H]3CC[C@]12C [olesoxime]	inactive: -1.04	inactive: -0.271	inactive: 1.19
CCCCN(CC)c1cc(C)nc2c1NC(=O)CN2c1ccc(OC)nc1OC [CRF-1 antags]	–	inactive: -0.154	–
CCCCN(CC)c1cc(C)nc2c1NC(=O)CN2c1ccc(OC)nc1OC [CRF-1 antags, BMS]	inactive: -0.0192	–	inactive: -0.795
CCCC(=O)OCC(=O)[C@@]1(O)CC[C@H]2[C@@H]3CCC4=CC(=O)CC[C@]4(C)[C@H]3[C@@H](O)C[C@@]21C	inactive: -0.648	inactive: 1.08	active: 6.44
